According to article PMC3082517 (PLoS Biology, 2011):
These are yes or no findings as the source states them, for the method shown. For part of these data: In cells and extracts the contact can be indirect. Some entries that bind do so weakly or less than the wild type. For part of these data: Tags and fused reporters may be left off the sequences shown.

By UniProt entry, the sequences of proteins in these tests, tags left out. Where a name states a change or a piece, a line headed by the entry shows the natural chain unless it says otherwise. Residues count along the entry.
UniProt P07174, residues 30-425: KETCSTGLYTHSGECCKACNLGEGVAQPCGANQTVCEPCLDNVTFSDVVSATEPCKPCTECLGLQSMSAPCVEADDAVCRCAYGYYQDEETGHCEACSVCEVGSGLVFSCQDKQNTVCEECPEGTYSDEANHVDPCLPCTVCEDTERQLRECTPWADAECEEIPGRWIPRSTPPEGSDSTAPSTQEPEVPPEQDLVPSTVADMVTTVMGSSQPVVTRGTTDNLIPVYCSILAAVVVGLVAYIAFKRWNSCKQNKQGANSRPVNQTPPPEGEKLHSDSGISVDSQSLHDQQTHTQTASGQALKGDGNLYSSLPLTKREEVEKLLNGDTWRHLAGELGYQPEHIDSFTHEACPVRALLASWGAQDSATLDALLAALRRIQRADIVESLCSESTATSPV
UniProt Q9Z0W1, residues 32-254: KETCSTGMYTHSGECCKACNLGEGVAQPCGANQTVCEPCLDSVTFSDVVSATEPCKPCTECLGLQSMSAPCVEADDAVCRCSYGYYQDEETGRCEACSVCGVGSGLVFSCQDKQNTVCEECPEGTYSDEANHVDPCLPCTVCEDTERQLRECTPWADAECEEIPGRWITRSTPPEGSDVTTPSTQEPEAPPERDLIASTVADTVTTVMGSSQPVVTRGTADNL
UniProt P01139, residues 122-241: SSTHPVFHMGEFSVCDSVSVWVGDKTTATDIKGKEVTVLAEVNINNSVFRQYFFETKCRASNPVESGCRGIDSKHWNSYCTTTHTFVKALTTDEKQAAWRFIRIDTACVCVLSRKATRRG

Experiments:
[1] = biological target: rat p75^NTR receptor expressed in HEK293 cells (HEK293^p75NTR) (rat) (UniProt P07174); assay: radioligand binding; homologous [125I]-NGF displacement with unlabeled NGF on membranes isolated from HEK293^TrkA and HEK293^p75NTR transfectants; only the binder purified
[2] = biological target: Recombinant Mouse NGF R/TNFRSF16/Fc Chimera (mouse) (UniProt Q9Z0W1); assay: pull-down; recombinant receptor/Fc chimeras pre-incubated with NGF in excess, then incubated overnight at 4°C with DHEA-7-CMO on NovaPEG amino resin; loss of the pull-down read by Western blot; both purified
[3] = biological target: T1, RhoGDP dissociation inhibitor (RhoGDI), myc-tagged (UniProt P52565); assay: co-IP; HEK293 cells co-transfected with p75NTR and flag-TRAF6, myc-RIP2 or myc-RhoGDI, exposed for 30 min to 100 nM DHEA or 100 ng/ml NGF; lysates (50 mM Tris-HCl, 0.15 M NaCl, 1% Triton-X100, pH 7.4) immunoprecipitated with anti-flag or anti-myc, blotted for p75NTR
T1 sequence: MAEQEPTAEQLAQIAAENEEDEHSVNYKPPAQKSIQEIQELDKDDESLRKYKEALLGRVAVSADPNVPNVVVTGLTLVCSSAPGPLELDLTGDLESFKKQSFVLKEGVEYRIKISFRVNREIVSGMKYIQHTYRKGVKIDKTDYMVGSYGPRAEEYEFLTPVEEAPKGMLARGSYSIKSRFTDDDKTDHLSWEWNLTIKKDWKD

With “[125I]-NGF (from UniProt P01139 122-241) (ligand)” the binding [1] was “binds”.

With “nerve growth factor (NGF), unlabeled (from UniProt P01139 122-241) (ligand)” the binding [2] was “binds”.

With “rat p75^NTR receptor expressed in HEK293 cells (HEK293^p75NTR) (from UniProt P07174 30-425)” the binding [3] was “binds”.
